Test results as given in patent US20050147720A1, “Method of analyzing protein” (priority 2002, published 2005).

Test: Molecular weight range of detectable protein: calibration curve by dot blotting-fluorescence staining
Conditions: each protein diluted in place of BSA of Example 1, FIG. 5

Substance	minimum limit of detection [ppm]
insulin	0.1
lysozyme	0.1
oxidized insulin B chain	0.2
ubiquitin	0.1
